These are yes or no findings as the source states them, for the method shown. In cells and extracts the contact can be indirect. Binding can be weak; no strength is given. Where a sequence is shown, tags or fusion partners need not be part of it. Values belong to the molecule of their own block, whether it stands above or below them.
Assays:
Test in all cases: co-IP
[1] = molecular target: T1, TUB-V5 (C-terminal V5-tagged rat tubby) (rat) (UniProt O88808)
T1 sequence: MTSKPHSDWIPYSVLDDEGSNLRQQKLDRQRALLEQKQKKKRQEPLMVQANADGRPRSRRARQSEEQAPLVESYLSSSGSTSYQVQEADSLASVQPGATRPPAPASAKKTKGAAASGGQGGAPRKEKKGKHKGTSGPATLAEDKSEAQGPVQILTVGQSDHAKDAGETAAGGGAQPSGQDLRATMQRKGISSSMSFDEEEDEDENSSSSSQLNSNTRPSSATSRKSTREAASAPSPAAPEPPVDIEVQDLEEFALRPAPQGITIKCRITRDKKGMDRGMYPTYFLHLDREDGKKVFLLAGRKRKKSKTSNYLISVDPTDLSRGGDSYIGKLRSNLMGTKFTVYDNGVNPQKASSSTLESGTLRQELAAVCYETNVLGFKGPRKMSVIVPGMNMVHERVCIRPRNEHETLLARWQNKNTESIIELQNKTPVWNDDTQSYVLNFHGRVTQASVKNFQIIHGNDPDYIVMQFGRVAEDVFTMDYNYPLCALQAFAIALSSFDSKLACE

The chains behind the UniProt entries cited, without tags or fusion partners. Where a name states a change or a piece, a line headed by the entry shows the natural chain unless it says otherwise. Residues count along the entry.
UniProt Q8NBT3: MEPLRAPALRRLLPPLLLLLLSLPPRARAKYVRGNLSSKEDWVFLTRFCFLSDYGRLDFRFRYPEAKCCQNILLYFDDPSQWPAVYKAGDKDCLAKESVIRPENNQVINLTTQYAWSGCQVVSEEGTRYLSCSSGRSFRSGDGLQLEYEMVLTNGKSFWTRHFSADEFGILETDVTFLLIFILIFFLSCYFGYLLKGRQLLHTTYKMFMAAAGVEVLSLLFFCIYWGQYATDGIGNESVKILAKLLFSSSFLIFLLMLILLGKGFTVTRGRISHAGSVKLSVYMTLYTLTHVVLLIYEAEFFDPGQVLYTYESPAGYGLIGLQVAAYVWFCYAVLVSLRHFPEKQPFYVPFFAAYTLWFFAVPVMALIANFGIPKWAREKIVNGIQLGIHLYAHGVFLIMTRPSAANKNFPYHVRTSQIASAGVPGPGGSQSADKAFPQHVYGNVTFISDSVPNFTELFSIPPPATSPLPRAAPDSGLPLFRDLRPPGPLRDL
UniProt Q8VIM6, residues 23-1809: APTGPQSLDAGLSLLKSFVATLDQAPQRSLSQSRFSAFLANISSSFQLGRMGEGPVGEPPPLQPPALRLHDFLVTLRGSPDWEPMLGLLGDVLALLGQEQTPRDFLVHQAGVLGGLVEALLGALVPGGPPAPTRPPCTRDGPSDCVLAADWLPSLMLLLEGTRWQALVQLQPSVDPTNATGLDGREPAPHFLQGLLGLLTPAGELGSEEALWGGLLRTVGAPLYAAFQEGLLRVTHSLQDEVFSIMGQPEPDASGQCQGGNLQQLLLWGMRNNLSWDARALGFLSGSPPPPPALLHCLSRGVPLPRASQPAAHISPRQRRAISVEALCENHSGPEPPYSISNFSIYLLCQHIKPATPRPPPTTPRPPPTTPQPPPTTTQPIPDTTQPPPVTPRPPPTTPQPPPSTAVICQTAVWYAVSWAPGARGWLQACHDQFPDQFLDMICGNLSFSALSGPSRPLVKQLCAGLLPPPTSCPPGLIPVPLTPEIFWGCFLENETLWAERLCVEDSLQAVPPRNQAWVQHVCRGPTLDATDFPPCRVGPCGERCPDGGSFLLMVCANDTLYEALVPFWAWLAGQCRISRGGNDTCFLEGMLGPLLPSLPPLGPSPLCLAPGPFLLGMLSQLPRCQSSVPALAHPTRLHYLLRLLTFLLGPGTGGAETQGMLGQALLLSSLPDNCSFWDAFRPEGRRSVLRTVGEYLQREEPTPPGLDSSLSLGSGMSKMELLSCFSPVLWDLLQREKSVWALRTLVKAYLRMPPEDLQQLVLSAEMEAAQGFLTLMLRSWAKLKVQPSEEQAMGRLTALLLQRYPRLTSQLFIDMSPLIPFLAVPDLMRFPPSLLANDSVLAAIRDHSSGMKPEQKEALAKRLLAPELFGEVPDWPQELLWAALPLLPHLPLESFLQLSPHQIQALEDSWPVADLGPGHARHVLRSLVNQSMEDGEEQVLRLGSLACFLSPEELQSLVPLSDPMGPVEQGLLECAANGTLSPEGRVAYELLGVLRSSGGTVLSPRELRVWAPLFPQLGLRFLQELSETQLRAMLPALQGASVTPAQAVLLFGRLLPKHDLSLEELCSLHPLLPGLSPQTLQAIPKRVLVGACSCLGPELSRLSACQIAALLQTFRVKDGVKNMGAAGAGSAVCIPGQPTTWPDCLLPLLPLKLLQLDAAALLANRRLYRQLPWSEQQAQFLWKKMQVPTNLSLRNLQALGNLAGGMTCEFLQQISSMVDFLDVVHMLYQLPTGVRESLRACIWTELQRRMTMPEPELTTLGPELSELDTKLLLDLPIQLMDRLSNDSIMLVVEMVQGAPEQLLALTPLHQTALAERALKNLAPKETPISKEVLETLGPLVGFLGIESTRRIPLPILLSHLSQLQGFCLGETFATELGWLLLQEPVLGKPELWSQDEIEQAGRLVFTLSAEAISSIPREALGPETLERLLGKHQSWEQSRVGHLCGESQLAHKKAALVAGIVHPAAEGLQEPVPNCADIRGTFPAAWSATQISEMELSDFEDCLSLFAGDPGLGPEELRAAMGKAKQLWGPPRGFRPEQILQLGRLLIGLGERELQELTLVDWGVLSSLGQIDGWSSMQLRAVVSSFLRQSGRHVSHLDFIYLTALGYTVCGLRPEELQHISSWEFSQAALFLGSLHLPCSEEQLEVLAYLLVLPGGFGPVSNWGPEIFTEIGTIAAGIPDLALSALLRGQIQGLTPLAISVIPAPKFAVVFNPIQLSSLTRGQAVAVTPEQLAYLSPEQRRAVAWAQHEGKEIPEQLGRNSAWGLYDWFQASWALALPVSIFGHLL

[2] = molecular target: TMEM145-FLAG (C-terminal FLAG-tagged TMEM145, wild type) (not stated (human or mouse cDNA cloned)) (UniProt Q8NBT3)
[3] = molecular target: TMEM145-Δ7TM-FLAG (not stated (human or mouse cDNA cloned)) (UniProt Q8NBT3)
[4] = molecular target: TMEM145-ΔGOLD-FLAG (not stated (human or mouse cDNA cloned)) (UniProt Q8NBT3)

- binding [1]: binds
Molecule: TMEM145-FLAG (C-terminal FLAG-tagged TMEM145, wild type) (from UniProt Q8NBT3)

- binding [2]: binds
- binding [3]: binds
- binding [4]: no binding
Molecule: STRC-MYC (C-terminal MYC-tagged mouse stereocilin) (from UniProt Q8VIM6 23-1809)

- binding [2]: binds
B1: TUB-V5 (C-terminal V5-tagged rat tubby) (protein, UniProt O88808 1-505)
chain: T1 sequence

- binding [2]: binds
- binding [3]: no binding
- binding [4]: binds
B2: TUB-MYC (C-terminal MYC-tagged rat tubby) (protein, UniProt O88808 1-505)
chain: T1 sequence
